# Assay results reported in publication PMC11589570, “Critical assessment of LC3/GABARAP ligands used for degrader development and ligandability of LC3/GABARAP binding pockets” (Nature Communications, 2024).
# “And” between values parts separate entries of the source, which are not always exact repeats. Equal entries are not always repeated. Further values from the same series stand in other lists.
# System: U2OS cells
# Test: Cell growth assay (IncuCyte confluence over 72 h)
# Format: cell-based
# Set-up: key: % of well area covered by cells (confluence)
# Settings: listed as 8F20
# How it was run: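 U2OS cells were grown in DMEM with 10% FBS for 24 h before treatment. Confluence was then tracked by IncuCyte phase imaging over 72 h and expressed as % of well area covered by cells. Each point is the average of three wells.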
compound,measurement,setting,value
"Cc1ccc(C(=O)N(CCCN)[C@@H](c2nc3cc(Cl)ccc3c(=O)n2Cc2ccccc2)C(C)C)cc1 [compound 3, (R)-N-(3-aminopropyl)-N-(1-(3-benzyl-7-chloro-4-oxo-3,4-dihydroquinazolin-2-yl)−2-methylpropyl)−4-methylbenzamide]",U2OS cell growth,"100 nM, time 0 h",18.0255 and 19.691 and 18.4435
same,U2OS cell growth,"100 nM, time 2 h",24.1043 and 26.9452 and 25.7455
same,U2OS cell growth,"100 nM, time 4 h",21.4028 and 24.7641 and 21.3414
same,U2OS cell growth,"100 nM, time 6 h",24.2787 and 24.4992 and 24.4953
same,U2OS cell growth,"100 nM, time 12 h",22.7099 and 20.7666 and 25.7013
same,U2OS cell growth,"100 nM, time 14 h",23.1025 and 20.7978 and 25.9462
same,U2OS cell growth,"100 nM, time 16 h",21.7872 and 19.9875 and 26.7142
same,U2OS cell growth,"100 nM, time 18 h",24.0118 and 18.9125 and 30.747
same,U2OS cell growth,"100 nM, time 20 h",22.0141 and 18.4921 and 24.654
same,U2OS cell growth,"100 nM, time 22 h",21.0436 and 16.4828 and 22.1426
same,U2OS cell growth,"100 nM, time 24 h",19.22 and 18.0764 and 22.1209
same,U2OS cell growth,"100 nM, time 26 h",21.5351 and 18.5507 and 21.8086
same,U2OS cell growth,"100 nM, time 28 h",21.9225 and 20.0634 and 21.6973
same,U2OS cell growth,"100 nM, time 30 h",21.0089 and 19.681 and 22.6641
same,U2OS cell growth,"100 nM, time 32 h",22.9178 and 20.8483 and 25.4586
same,U2OS cell growth,"100 nM, time 48 h",32.126 and 29.4283 and 35.5759
same,U2OS cell growth,"100 nM, time 50 h",31.3724 and 30.2183 and 32.922
same,U2OS cell growth,"100 nM, time 52 h",32.7838 and 31.9468 and 32.3438
same,U2OS cell growth,"100 nM, time 54 h",30.2864 and 27.1369 and 34.8183
same,U2OS cell growth,"100 nM, time 56 h",34.5771 and 31.591 and 35.5871
same,U2OS cell growth,"100 nM, time 58 h",37.6939 and 37.2505 and 38.0323
same,U2OS cell growth,"100 nM, time 60 h",47.6851 and 48.3681 and 56.4168
same,U2OS cell growth,"100 nM, time 62 h",35.4962 and 41.6208 and 40.3505
same,U2OS cell growth,"100 nM, time 64 h",37.9852 and 37.0606 and 36.9349
same,U2OS cell growth,"100 nM, time 66 h",35.0116 and 35.9266 and 35.1875
same,U2OS cell growth,"100 nM, time 68 h",38.4914 and 33.3062 and 36.9128
same,U2OS cell growth,"100 nM, time 70 h",40.9151 and 36.2966 and 42.793
same,U2OS cell growth,"100 nM, time 72 h",39.0452 and 35.0035 and 40.581
same,U2OS cell growth,"500 nM, time 0 h",24.9027 and 30.3112 and 23.4178
same,U2OS cell growth,"500 nM, time 2 h",27.1071 and 34.0249 and 28.9277
same,U2OS cell growth,"500 nM, time 4 h",26.3563 and 31.6087 and 27.5504
same,U2OS cell growth,"500 nM, time 6 h",25.1739 and 33.3568 and 29.1534
same,U2OS cell growth,"500 nM, time 8 h",29.7636 and 27.4625 and 28.9461
same,U2OS cell growth,"500 nM, time 10 h",32.8557 and 33.1701 and 34.3828
same,U2OS cell growth,"500 nM, time 12 h",30.8833 and 31.8525 and 33.3299
same,U2OS cell growth,"500 nM, time 14 h",28.9221 and 28.9166 and 31.9426
same,U2OS cell growth,"500 nM, time 16 h",31.0913 and 28.7443 and 27.7174
same,U2OS cell growth,"500 nM, time 18 h",26.4683 and 26.5812 and 25.756
same,U2OS cell growth,"500 nM, time 20 h",31.6066 and 25.7677 and 28.3835
same,U2OS cell growth,"500 nM, time 22 h",23.7757 and 25.1448 and 24.3237
same,U2OS cell growth,"500 nM, time 24 h",23.9838 and 24.3114 and 24.0817
same,U2OS cell growth,"500 nM, time 26 h",24.315 and 23.8237 and 23.1959
same,U2OS cell growth,"500 nM, time 28 h",25.7796 and 27.7775 and 23.8045
same,U2OS cell growth,"500 nM, time 30 h",23.1662 and 25.2785 and 25.0342
same,U2OS cell growth,"500 nM, time 32 h",28.8463 and 30.8267 and 27.0245
same,U2OS cell growth,"500 nM, time 46 h",38.2103 and 35.4684 and 34.5564
same,U2OS cell growth,"500 nM, time 48 h",38.7923 and 42.0746 and 37.7481
same,U2OS cell growth,"500 nM, time 50 h",35.7787 and 37.4828 and 37.4481
same,U2OS cell growth,"500 nM, time 52 h",42.5443 and 47.4299 and 40.0477
same,U2OS cell growth,"500 nM, time 54 h",35.6733 and 42.667 and 35.3607
same,U2OS cell growth,"500 nM, time 56 h",43.0215 and 45.5232 and 43.9415
same,U2OS cell growth,"500 nM, time 58 h",34.8748 and 46.6281 and 38.629
same,U2OS cell growth,"500 nM, time 60 h",50.2082 and 51.0815 and 48.2963
same,U2OS cell growth,"500 nM, time 62 h",48.2613 and 50.3061 and 44.4074
same,U2OS cell growth,"500 nM, time 64 h",47.3827 and 47.4586 and 39.9365
same,U2OS cell growth,"500 nM, time 66 h",43.074 and 44.7402 and 43.409
same,U2OS cell growth,"500 nM, time 68 h",48.2467 and 46.3511 and 41.002
same,U2OS cell growth,"500 nM, time 70 h",45.2225 and 49.1755 and 44.6094
same,U2OS cell growth,"500 nM, time 72 h",40.2655 and 44.8363 and 51.0141
same,U2OS cell growth,"1 uM, time 0 h",41.1183 and 35.5573 and 30.995
same,U2OS cell growth,"1 uM, time 2 h",43.2651 and 37.7639 and 33.8573
same,U2OS cell growth,"1 uM, time 4 h",39.0854 and 35.7076 and 33.0202
same,U2OS cell growth,"1 uM, time 6 h",40.2992 and 37.2216 and 34.4466
same,U2OS cell growth,"1 uM, time 8 h",37.3173 and 33.5515 and 32.4428
same,U2OS cell growth,"1 uM, time 10 h",42.1549 and 38.9801 and 35.6018
same,U2OS cell growth,"1 uM, time 12 h",39.3051 and 36.2596 and 32.5132
same,U2OS cell growth,"1 uM, time 14 h",34.7349 and 33.4721 and 28.9114
same,U2OS cell growth,"1 uM, time 16 h",36.5609 and 31.3223 and 29.4847
same,U2OS cell growth,"1 uM, time 18 h",30.4572 and 28.8567 and 24.9221
same,U2OS cell growth,"1 uM, time 20 h",27.7801 and 25.9127 and 22.6116
same,U2OS cell growth,"1 uM, time 22 h",27.4605 and 26.4625 and 22.8788
same,U2OS cell growth,"1 uM, time 24 h",25.2331 and 26.8925 and 22.6855
same,U2OS cell growth,"1 uM, time 26 h",27.7636 and 30.4091 and 24.3243
same,U2OS cell growth,"1 uM, time 28 h",28.5929 and 30.5423 and 24.5698
same,U2OS cell growth,"1 uM, time 30 h",27.8104 and 30.6117 and 25.8499
same,U2OS cell growth,"1 uM, time 32 h",32.6672 and 34.9619 and 29.1111
same,U2OS cell growth,"1 uM, time 46 h",39.1313 and 35.6705
same,U2OS cell growth,"1 uM, time 48 h",41.8136 and 49.2214 and 40.9152
same,U2OS cell growth,"1 uM, time 50 h",41.5178 and 43.3812 and 36.8309
